Experimental data reported in article PMC10250209, “UV-DDB stimulates the activity of SMUG1 during base excision repair of 5-hydroxymethyl-2'-deoxyuridine moieties”.
These are yes or no findings as the source states them, for the method shown. For part of these data: In cells and extracts the contact can be indirect. Some results given as binding are weak or reduced against the parent protein; the word gives no strength. For part of these data: Tags and fused reporters may be left off the sequences shown.

The chains behind the UniProt entries cited, without tags or fusion partners.
UniProt Q92466: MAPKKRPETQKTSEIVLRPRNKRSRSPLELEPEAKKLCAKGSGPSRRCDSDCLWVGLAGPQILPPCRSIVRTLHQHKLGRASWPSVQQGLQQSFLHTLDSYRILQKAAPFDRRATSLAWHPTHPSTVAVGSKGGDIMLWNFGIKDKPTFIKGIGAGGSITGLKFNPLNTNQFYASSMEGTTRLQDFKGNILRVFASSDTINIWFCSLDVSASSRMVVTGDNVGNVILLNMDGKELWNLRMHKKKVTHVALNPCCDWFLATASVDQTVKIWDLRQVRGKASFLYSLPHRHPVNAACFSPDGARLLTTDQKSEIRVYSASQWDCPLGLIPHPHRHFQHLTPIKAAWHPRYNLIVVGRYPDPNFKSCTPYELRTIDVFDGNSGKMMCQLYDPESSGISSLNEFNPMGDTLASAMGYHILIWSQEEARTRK
UniProt Q16531: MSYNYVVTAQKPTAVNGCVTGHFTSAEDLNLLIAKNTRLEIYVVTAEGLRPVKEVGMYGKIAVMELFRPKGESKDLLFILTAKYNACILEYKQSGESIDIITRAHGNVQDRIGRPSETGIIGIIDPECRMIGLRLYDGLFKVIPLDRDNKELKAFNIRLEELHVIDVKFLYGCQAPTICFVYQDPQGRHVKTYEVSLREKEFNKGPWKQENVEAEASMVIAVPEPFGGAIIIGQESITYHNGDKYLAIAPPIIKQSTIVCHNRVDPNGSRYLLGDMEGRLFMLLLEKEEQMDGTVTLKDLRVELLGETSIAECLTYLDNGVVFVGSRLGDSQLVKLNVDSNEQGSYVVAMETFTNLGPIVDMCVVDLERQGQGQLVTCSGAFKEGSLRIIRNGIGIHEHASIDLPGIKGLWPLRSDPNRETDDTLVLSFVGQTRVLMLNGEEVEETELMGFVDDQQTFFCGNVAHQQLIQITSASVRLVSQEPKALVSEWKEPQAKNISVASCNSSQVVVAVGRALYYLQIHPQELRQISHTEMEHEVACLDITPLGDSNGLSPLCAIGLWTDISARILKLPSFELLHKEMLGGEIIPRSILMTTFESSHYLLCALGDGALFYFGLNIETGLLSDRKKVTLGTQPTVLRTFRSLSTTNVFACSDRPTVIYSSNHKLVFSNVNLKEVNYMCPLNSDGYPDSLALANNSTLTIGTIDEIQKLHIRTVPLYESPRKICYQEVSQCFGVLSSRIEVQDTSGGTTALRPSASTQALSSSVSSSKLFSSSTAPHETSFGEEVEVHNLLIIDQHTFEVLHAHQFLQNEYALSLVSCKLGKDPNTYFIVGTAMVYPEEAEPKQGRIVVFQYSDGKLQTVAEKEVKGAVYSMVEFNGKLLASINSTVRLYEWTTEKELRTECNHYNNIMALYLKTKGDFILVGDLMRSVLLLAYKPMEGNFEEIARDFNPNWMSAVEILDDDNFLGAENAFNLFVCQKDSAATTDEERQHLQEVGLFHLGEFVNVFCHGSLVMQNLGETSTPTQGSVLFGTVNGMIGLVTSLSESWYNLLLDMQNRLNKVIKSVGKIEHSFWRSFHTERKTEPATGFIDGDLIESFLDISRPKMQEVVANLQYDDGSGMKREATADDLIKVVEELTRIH

Key:
DDB2-mCherry = DDB2-mCherry (UniProt Q92466); assay: proximity ligation; U2OS cells transiently transfected with the tagged proteins; treated with 5.0 uM 5-hmdU for 15 min or 60 J/m2 UV-C; CSK extraction, fixed; primary antibodies to mCherry and GFP; PLA foci per nucleus
DDB2-Flag = DDB2-Flag (UniProt Q92466); assay: tandem affinity co-purification (His-Trap Ni2+, anti-FLAG M2 gel) + SEC; DDB1-6xHis and DDB2-Flag co-expressed in Sf9 cells; Ni2+ column, then anti-FLAG gel, then HiLoad 16/60 Superdex 200 in 50 mM HEPES pH 7.5, 200 mM KCl, 1 mM EDTA, 2 mM DTT, 10% glycerol

binding (DDB2-mCherry) | binding (DDB2-Flag) | Molecule
binds | – | GFP-DDB1 (from UniProt Q16531 1-1140)
– | binds | DDB1-6xHis (from UniProt Q16531 1-1140)
binds | – | SMUG1-GFP (enzyme, UniProt Q53HV7 1-270) MPQAFLLGSIHEPAGALMEPQPCPGSLAESFLEEELRLNAELSQLQFSEPVGIIYNPVEYAWEPHRNYVTRYCQGPKEVLFLGMNPGPFGMAQTGVPFGEVSMVRDWLGIVGPVLTPPQEHPKRPVLGLECPQSEVSGARFWGFFRNLCGQPEVFFHHCFVHNLCPLLFLAPSGRNLTPAELPAKQREQLLGICDAALCRQVQLLGVRLVVGVGRLAEQRARRALAGLMPEVQVEGLLHPSPRNPQANKGWEAVAKERLNELGLLPLLLK
